Experimental data reported in paper PMC8814028.
These are yes or no findings as the source states them, for the method shown. Binding seen in cells or lysates may run through a third protein. Some binding calls cover weakened binding; strength is not graded here.

Biological target: T1, β-catenin (mouse (endogenous in cerebral cortex)), Q02248
T1 chain: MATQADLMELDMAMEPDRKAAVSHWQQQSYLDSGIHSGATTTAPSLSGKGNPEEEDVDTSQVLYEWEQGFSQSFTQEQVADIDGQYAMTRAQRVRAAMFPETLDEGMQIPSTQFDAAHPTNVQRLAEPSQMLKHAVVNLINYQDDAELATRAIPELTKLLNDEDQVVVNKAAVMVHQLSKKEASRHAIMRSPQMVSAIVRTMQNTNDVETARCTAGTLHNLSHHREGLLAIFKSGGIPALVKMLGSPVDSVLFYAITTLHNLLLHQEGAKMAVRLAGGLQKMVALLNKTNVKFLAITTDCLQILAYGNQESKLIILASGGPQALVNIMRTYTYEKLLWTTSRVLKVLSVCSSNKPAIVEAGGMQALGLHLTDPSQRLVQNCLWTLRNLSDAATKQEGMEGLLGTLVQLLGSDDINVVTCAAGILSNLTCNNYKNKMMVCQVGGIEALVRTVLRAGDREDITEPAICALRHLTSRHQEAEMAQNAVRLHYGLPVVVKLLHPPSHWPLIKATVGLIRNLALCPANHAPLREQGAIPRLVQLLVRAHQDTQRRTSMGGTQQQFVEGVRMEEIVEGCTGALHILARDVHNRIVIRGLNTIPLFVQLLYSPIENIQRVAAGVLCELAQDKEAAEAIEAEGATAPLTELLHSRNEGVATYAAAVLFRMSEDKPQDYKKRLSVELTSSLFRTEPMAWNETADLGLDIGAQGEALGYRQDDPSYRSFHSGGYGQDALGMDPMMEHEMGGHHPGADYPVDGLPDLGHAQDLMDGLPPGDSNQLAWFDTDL
Assay: co-IP; lysates of mice cerebral cortex (500 μg) incubated with 20 μg β-catenin antibody overnight at 4 °C, protein G-agarose, washed with cold PBS, blotted for TCF4; mouse normal IgG as negative control; mice: sham or MCAO, with or without LiCl and LY294002
Conditions: remark: other sources report otherwise

B1: transcription factor TCF4, Q924A0 1-459 (protein)
chain: MPQLNGGGGDDLGANDELISFKDEGEQEEKNSENSSAERDLADVKSSLVNESETNQDSSSDSEAERRPPPRSESFRDKSRESLEEAAKRQDGGLFKGPPYPGYPFIMIPDLTSPYLPNGSLSPTARTYLQMKWPLLDVQAGSLQSRQTLKDARSPSPAHIVSNKVPVVQHPHHVHPLTPLITYSNEHFTPGNPPPHLPADVDPKTGIPRPPHPPDISPYYPLSPGTVGQIPHPLGWLVPQQGQPVYPITTGGFRHPYPTALTVNASMSRFPPHMVPPHHTLHTTGIPHPAIVTPTVKQESSQSDVGSLHSSKHQDSKKEEEKKKPHIKKPLNAFMLYMKEMRAKVVAECTLKESAAINQILGRRWHALSREEQAKYYELARKERQLHMQLYPGWSARDNYGKKKKRKRDKQPGETNEHSECFLNPCLSLPPITDLSAPKKCRARFGLDQQNNWCGPCSL
binding: binds
